Patent publication US20100021918A1, “METHOD FOR ASSAYING ACTION OF ANTITUMOR AGENT USING SPLICING DEFECTS AS INDEX” (Eisai R&D Management Co., Ltd., priority 2007, published 2010)
Further values from the same series stand in other lists.

Test system: human colon carcinoma cell strain WiDr
Assay: Microarray analysis (2), reviewed conditions, intron expression, Table 3
Type: cell-based
Method: WiDr cells were first suspended in RPMI1640 medium (containing 10% FBS, penicillin, and streptomycin) and seeded in a 10 cm dish (2×10^6 cells/dish). After an overnight culture in an incubator with 5% carbon dioxide gas at 37° C., the medium was changed with medium containing 14 nM of (8E,12E,14E)-7-((4-cycloheptylpiperazin-1-yl)carbonyl)oxy-3,6,16,21-tetrahydroxy-6,10,12,16,20-pentamethyl-18,19-epoxytricosa-8,12,14-trien-11-olide or containing vehicle alone. After cultured for additional six hours, TRI reagent (SIGMA) were added to the cells and the cells were harvested. RNA was purified in accordance with the protocol of TRI reagent, followed by further purification with RNeasy (QIAGEN). Absorbance at 260 nm was measured to quantify an amount of RNA. This experiment was repeated three times and RNA samples (n=3) were prepared.
Ribosomal RNA was removed from 1 μg of each total RNA of control cells (n=3) and cells with the treatment (n=3) by using RiboMinus Human/Mouse Transcriptome Isolation Kit (Invitrogen). Single stranded cDNA synthesis, double stranded cDNA synthesis, cRNA synthesis, second single stranded cDNA synthesis, cDNA fragmentation, and cDNA labeling in order were carried out for the total RNA from which ribosomal RNA was removed, by using GeneChip Whole Transcript Sense Target Labeling and Control Reagents (Affymetrix) to make a cDNA probe. The cDNA probe was used for hybridization with Human Exon 1.0 ST Array (Affymetrix). The array was washed and stained, and luminescence intensity was measured by a scanner.
Analysis conditions were reviewed in the data used in Example 3. Genes containing increased introns upon treatment with (8E,12E,14E)-7-((4-cycloheptylpiperazin-1-yl)carbonyl)oxy-3,6,16,21-tetrahydroxy-6,10,12,16,20-pentamethyl-18,19-epoxytricosa-8,12,14-trien-11-olide were identified.
In order to consider the analysis conditions, variations in the data from the samples with identical conditions were studied. […] It turned out that, by analyzing under conditions where the expression level was more than 100 and change in the expression level was more than five times, a probe set with increased expression can be extracted.
Probe sets showing that the normalized change in the level expression of the probe set in the group with the treatment was more than 5 times; the expression level of the probe set and the gene in the group with the treatment were more than 100; and probe set annotation was “extended, full, free”, were picked out. Welch's t-test was conducted with the probe sets extracted for the treated group and the control group to determine a p and q value. A gene containing the probe sets with the q value of less than 5% was determined as a candidate gene with increased expression level of the intron regions (Table 3).
In Table 3, for each gene evaluated, gene name (Gene Name), abbreviated name (Gene Symbol), accession number (Accession), alias name (Synonym), transcription cluster number in Human Exon 1.0 ST Array (Human Exon 1.0 ST Array Transcript Cluster ID), chromosome number (Chromosome), type of strand (Strand), start region (Start), stop region (Stop), and change in expression level (Fold Change) were respectively shown.

## CCC(O)C(C)C1OC1CC(C)(O)/C=C/C=C(\C)C1OC(=O)CC(O)CCC(C)(O)C(OC(=O)N2CCN(C3CCCCCC3)CC2)/C=C/C1C (stereo not shown) [E7107, (8E,12E,14E)-7-((4-cycloheptylpiperazin-1-yl)carbonyl)oxy-3,6,16,21-tetrahydroxy-6,10,12,16,20-pentamethyl-18,19-epoxytricosa-8,12,14-trien-11-olide]
Gene RBM23 // C9orf102, Transcript Cluster ID 3556888, intron expression, treated vs control
  Fold Change: 9.18
Gene RBM25, Transcript Cluster ID 3543411, intron expression, treated vs control
  Fold Change: 10.23
Gene RBM26, change in expression level, treated vs control
  Fold Change: 21.52
Gene RBM39, intron expression, treated vs control
  Fold Change: 7.35
Gene RBMS2, Transcript Cluster ID 3417583, intron expression, treated vs control
  Fold Change: 9.78
Gene RCP9, Transcript Cluster ID 3005332
  Fold Change: 5.15
Gene RFWD3, intron expression, treated vs control
  Fold Change: 6.68
Gene RGS3, intron expression, treated vs control
  Fold Change: 6.71
Gene RIC8A, Transcript Cluster ID 3315512, intron expression, treated vs control
  Fold Change: 9.52
Gene RIF1, change in expression level, treated vs control
  Fold Change: 18.85
Gene RIOK3, change in expression level, treated vs control
  Fold Change: 13.87
Gene RNF40, change in expression level, treated vs control
  Fold Change: 11.42
Gene RNF138, Transcript Cluster ID 3783749
  Fold Change: 5.26
Gene RNMTL1, Transcript Cluster ID 3705539, intron expression, treated vs control
  Fold Change: 10.45
Gene RPL8, change in expression level, treated vs control
  Fold Change: 6.11
Gene RPL18, intron expression, treated vs control
  Fold Change: 7.29
Gene RPL30, intron expression, treated vs control
  Fold Change: 7.31
Gene RPLP0-like // RPLP0, Transcript Cluster ID 3474344
  Fold Change: 5.44
Gene RPS15A, Transcript Cluster ID 3683018
  Fold Change: 5.07
Gene RPUSD4, intron expression, treated vs control
  Fold Change: 6.76
Gene RQCD1 // PLCD4, change in expression level, treated vs control
  Fold Change: 6.24
Gene RRM2, Transcript Cluster ID 2469252, intron expression, treated vs control
  Fold Change: 10.35
Gene RSL1D1, Transcript Cluster ID 3680583
  Fold Change: 5.22
Gene RSPRY1, Transcript Cluster ID 3662612, intron expression, treated vs control
  Fold Change: 10.87
Gene RTN4, Transcript Cluster ID 2553576
  Fold Change: 5.15
Gene SAAL1, Transcript Cluster ID 3365249
  Fold Change: 5.45
Gene SBNO1, change in expression level, treated vs control
  Fold Change: 17.44
Gene SCYL2, change in expression level, treated vs control
  Fold Change: 6.12
Gene SDCCAG10, change in expression level, treated vs control
  Fold Change: 6.15
Gene SEC14L1, intron expression, treated vs control
  Fold Change: 7.45
Gene SEC24B, change in expression level, treated vs control
  Fold Change: 6.24
Gene SEC61G, Transcript Cluster ID 3051395
  Fold Change: 5.19
Gene SEH1L, change in expression level, treated vs control
  Fold Change: 6.17
Gene SENP3, intron expression, treated vs control
  Fold Change: 6.82
Gene SENP5, change in expression level, treated vs control
  Fold Change: 5.94
Gene SERBP1, Transcript Cluster ID 2417174, intron expression, treated vs control
  Fold Change: 9.26
Gene SET, change in expression level, treated vs control
  Fold Change: 6.12
Gene SETD2, Transcript Cluster ID 2672532
  Fold Change: 5.09
Gene SETD5, Transcript Cluster ID 2609608, intron expression, treated vs control
  Fold Change: 9.36
Gene SETX, intron expression, treated vs control
  Fold Change: 7.00
Gene SF1, intron expression, treated vs control
  Fold Change: 6.69
Gene SF3A3, Transcript Cluster ID 2407439
  Fold Change: 5.11
Gene SF3B1, Transcript Cluster ID 2593670, intron expression, treated vs control
  Fold Change: 9.52
Gene SF3B2, intron expression, treated vs control
  Fold Change: 7.14
Gene SF3B4, Transcript Cluster ID 2434159
  Fold Change: 5.05
Gene SFPQ, Transcript Cluster ID 2406064, intron expression, treated vs control
  Fold Change: 9.80
Gene SFRS1, Transcript Cluster ID 3764103, intron expression, treated vs control
  Fold Change: 10.37
Gene SFRS3, change in expression level, treated vs control
  Fold Change: 11.05
Gene SFRS5, Transcript Cluster ID 3542207, intron expression, treated vs control
  Fold Change: 9.42
Gene SFRS6, Transcript Cluster ID 3886050
  Fold Change: 5.21
Gene SFRS11, intron expression, treated vs control
  Fold Change: 7.12
Gene SFRS15, change in expression level, treated vs control
  Fold Change: 6.30
Gene SGK, Transcript Cluster ID 2975014
  Fold Change: 5.38
Gene SH3RF2, change in expression level, treated vs control
  Fold Change: 6.30
Gene SHC1, change in expression level, treated vs control
  Fold Change: 6.15
Gene SLC3A2, Transcript Cluster ID 3333711
  Fold Change: 5.15
Gene SLC7A1, change in expression level, treated vs control
  Fold Change: 6.07
Gene SLC25A32, change in expression level, treated vs control
  Fold Change: 12.60
Gene SLC30A9, change in expression level, treated vs control
  Fold Change: 6.23
Gene SLC39A7 // RING1, Transcript Cluster ID 2903470, intron expression, treated vs control
  Fold Change: 10.55
Gene SMAD3, Transcript Cluster ID 3598959, intron expression, treated vs control
  Fold Change: 8.97
Gene SMARCD1, change in expression level, treated vs control
  Fold Change: 10.90
Gene SMC3, change in expression level, treated vs control
  Fold Change: 6.28
Gene SMG5, Transcript Cluster ID 2438042
  Fold Change: 5.14
Gene SMG7, intron expression, treated vs control
  Fold Change: 7.09
Gene SMNDC1, Transcript Cluster ID 3306516, intron expression, treated vs control
  Fold Change: 9.38
Gene SMU1, change in expression level, treated vs control
  Fold Change: 6.06
Gene SMURF1, Transcript Cluster ID 3063083
  Fold Change: 5.11
Gene SMURF2, change in expression level, treated vs control
  Fold Change: 13.92
Gene SNAG1, Transcript Cluster ID 2809628, intron expression, treated vs control
  Fold Change: 9.07
Gene SNRPB2, change in expression level, treated vs control
  Fold Change: 6.49
Gene SNRPB, Transcript Cluster ID 3894995
  Fold Change: 5.23
Gene SNX5, intron expression, treated vs control
  Fold Change: 6.89
Gene SON, intron expression, treated vs control
  Fold Change: 7.20
Gene SP3 // RP11-114G1.1, Transcript Cluster ID 2587520
  Fold Change: 5.20
Gene SPAG5, Transcript Cluster ID 3750785, intron expression, treated vs control
  Fold Change: 10.12
Gene SPRED1, intron expression, treated vs control
  Fold Change: 6.76
Gene SPRY2, intron expression, treated vs control
  Fold Change: 7.07
Gene SQLE, intron expression, treated vs control
  Fold Change: 7.20
Gene SR-A1, intron expression, treated vs control
  Fold Change: 7.01
Gene SRCAP, change in expression level, treated vs control
  Fold Change: 11.09
Gene SREBF2, Transcript Cluster ID 3947123
  Fold Change: 5.12
Gene SRP68, intron expression, treated vs control
  Fold Change: 7.41
Gene SRP72, Transcript Cluster ID 2728224
  Fold Change: 5.19
Gene SSFA2, change in expression level, treated vs control
  Fold Change: 10.95
Gene SSNA1, Transcript Cluster ID 3195296
  Fold Change: 5.22
Gene SSR1, intron expression, treated vs control
  Fold Change: 6.94
Gene SSR2, intron expression, treated vs control
  Fold Change: 6.52
Gene STAM, Transcript Cluster ID 3237088, intron expression, treated vs control
  Fold Change: 9.11
Gene SUPT4H1, change in expression level, treated vs control
  Fold Change: 6.19
Gene SUPT6H, Transcript Cluster ID 3715703, intron expression, treated vs control
  Fold Change: 10.38
Gene SUPT7L, Transcript Cluster ID 2546008, intron expression, treated vs control
  Fold Change: 9.15
Gene SURF6, Transcript Cluster ID 3228621
  Fold Change: 5.32
Gene SYNCRIP, intron expression, treated vs control
  Fold Change: 7.47
Gene TACC3, Transcript Cluster ID 2714955, intron expression, treated vs control
  Fold Change: 9.12
Gene TAF5L // MUC4, Transcript Cluster ID 2459971
  Fold Change: 5.18
Gene TARDBP, Transcript Cluster ID 2320048, intron expression, treated vs control
  Fold Change: 9.82
Gene TBRG4, Transcript Cluster ID 3049025, intron expression, treated vs control
  Fold Change: 9.01
Gene TCEB3, change in expression level, treated vs control
  Fold Change: 12.38
Gene TCERG1, Transcript Cluster ID 2834093, intron expression, treated vs control
  Fold Change: 10.18
Gene TERF2, change in expression level, treated vs control
  Fold Change: 6.00
Gene TERF2IP, Transcript Cluster ID 3669092, intron expression, treated vs control
  Fold Change: 10.25
Gene TES, Transcript Cluster ID 3020192, intron expression, treated vs control
  Fold Change: 10.53
